Results deposited as PubChem BioAssay AID720505 (Drosophila RNAi Screening Center, 2013)

- Purpose: 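Fly regulators or components of the CRAC channel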 (primary screen)
- Cells: Drosophila S2R+ cells
- Reagents: long dsRNA against Drosophila genes
- Conditions: thapsigargin (2 µM) in calcium-free buffer to empty internal stores, then 2 mM calcium added back
- Detection: 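Fluo-4 signal in 384-well plates read on a FLIPR after thapsigargin (2 µM, calcium-free) store depletion and 2 mM calcium add-back; unnormalised mean endpoint per well; screen run twice, selected wells retested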
- Scale: calcium signal and retest calcium signal: higher = more calcium entry after store depletion
- Call rule: 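About 1500 genes called as lowering calcium entry, by varying amounts, judged against per-plate control wells with STIM1 as positive and Rho1 as negative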
- Calls: active = called as lowering calcium entry; inactive = not called
The screen tested about 20,000 reagents; this is an unselected part of those that have a named target and a result. Of all reagents, about 2,100 (10%) are marked active. 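Raw plate signals without normalisation; calls rest on control-based scores that were not deposited; replicate 2 separates called from uncalled poorly.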 Unmarked entries are inactive. Reagents against one gene are numbered here. A plus sign joins genes that one reagent is predicted to hit. Not stated in the record: the amount of reagent, the time to read-out.

target gene | reagent | calcium signal, replicate 1 | calcium signal, replicate 2 | retest calcium signal, replicate 1 | retest calcium signal, replicate 2
CG11634 (GeneID 35434) | 1 | 146 | 90.5 | – | –
Pal2 (GeneID 37746) | 1 | 141 | 162 | – | –
CG10336 (GeneID 35122) | 1 | 83.5 | 98.2 | – | –
CG42271 (GeneID 2768892) | 1 | 140 | 81.1 | – | –
CG42271 (GeneID 2768892) | 2 | 112 | 213 | – | –
zyd (GeneID 3354992) | 1 | 215 | 114 | – | –
Tsr1 (GeneID 40360) | 1 | 117 | 97.3 | – | –
Fer2 (GeneID 41961) | 1 | 101 | 212 | – | –
Cka (GeneID 34096) | 1 | 168 | 206 | – | –
Cka (GeneID 34096) | 2 | 88.4 | 125 | – | –
RabX1 (GeneID 44172) | 1 | 182 | 213 | – | –
CG31807 (GeneID 318953) | 1 | 121 | 92.4 | – | –
CG18335 (GeneID 36202) | 1 | 101 | 176 | – | –
CG7786 (GeneID 36802) | 1 | 130 | 108 | – | –
GstZ1 (GeneID 41132) | 1 | 101 | 125 | – | –
CG15597 (GeneID 40767) | 1 | 115 | 111 | 109 | 87.6
CG31689 (GeneID 326154) | 1 | 139 | 156 | – | –
Nmd3 (GeneID 31195) | 1 | 139 | 181 | – | –
Nmd3 (GeneID 31195) | 2 | 123 | 119 | – | –
Cog2 (GeneID 41870) | 1 | 112 | 153 | – | –
PSMG1 (GeneID 40719) | 1 | 117 | 131 | – | –
PGRP-SC1a (GeneID 35859) | 1 | 134 | 172 | – | –
rumi (GeneID 326122) | 1 | 183 | 232 | – | –
Cyp312a1 (GeneID 40005) | 1 | 88.9 | 154 | – | –
CG1309 (GeneID 38519) | 1 | 105 | 124 | – | –
bip1 (GeneID 38891) | 1 | 100 | 123 | – | –
HLH4C (GeneID 31397) | 1 | 225 | 120 | 8186 | 183
HLH4C (GeneID 31397) | 2 | 76.5 | 89 | – | –
CG6937 + btn | 1 | 141 | 95.5 | – | –
CG7889 (GeneID 32916) | 1 | 168 | 155 | 96.9 | 102
Klp10A (GeneID 32049) | 1 | 105 | 83.5 | – | –
sls (GeneID 44013) | 1 | 116 | 96.2 | – | –
sls (GeneID 44013) | 2 | 83.3 | 138 | – | –
sls (GeneID 44013) | 3 | 73 | 57.7 | – | –
ACXC (GeneID 34689) | 1 | 111 | 108 | – | –
Ucp4C (GeneID 33832) | 1 | 162 | 112 | – | –
grau (GeneID 45871) | 1 | 182 | 96.7 | – | –
Art4 (GeneID 41219) | 1 | 168 | 77 | – | –
Vha16-1 (GeneID 44307) | 1 | 71.2 (active) | 182 | – | –
Crk (GeneID 43775) | 1 | 138 | 120 | – | –
CG13449 (GeneID 39695) | 1 | 129 | 155 | – | –
Ppi1 (GeneID 43581) | 1 | 98.6 | 149 | – | –
w-cup (GeneID 34455) | 1 | 160 | 162 | – | –
CG10927 (GeneID 37135) | 1 | 130 | 114 | – | –
CG13800 (retired record) (GeneID 38305) | 1 | 118 | 96.5 | – | –
Ifrd1 (GeneID 33489) | 1 | 104 | 80.9 | – | –
Ifrd1 (GeneID 33489) | 2 | 81.9 | 78.1 | – | –
CG7290 (GeneID 40211) | 1 | 79.4 | 91.7 | – | –
CG42560 + CG42559 | 1 | 85.7 | 165 | – | –
CanB (GeneID 44317) | 1 | 147 | 79.5 | – | –
Mpc1 (GeneID 42268) | 1 | 100 | 174 | – | –
Noa36 (GeneID 43384) | 1 | 105 | 135 | – | –
Hexim (GeneID 41778) | 1 | 134 | 141 | – | –
CG12780 (GeneID 35834) | 1 | 132 | 207 | – | –
CG14294 (GeneID 42262) | 1 | 93.2 | 80.3 | – | –
CG7309 (GeneID 34509) | 1 | 86.8 | 131 | – | –
